In patent US20100298541A1:
These are yes or no findings as the source states them, for the method shown. Some binding calls cover weakened binding; strength is not graded here. Sequences can lack the tags named with a protein. Blank lines part the entries; values can stand above or below the binder they belong to.

Amino acid sequences for entries named in this document (tags omitted). Residues count along the entry.
UniProt O14763, residues 54-182: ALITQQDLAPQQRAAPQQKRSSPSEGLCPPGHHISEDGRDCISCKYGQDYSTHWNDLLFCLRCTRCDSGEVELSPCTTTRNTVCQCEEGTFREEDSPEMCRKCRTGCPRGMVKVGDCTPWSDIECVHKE

How the values were obtained:
[1] = biological target: TRAIL-R2/Fc fusion protein (R & D Systems) (UniProt O14763); assay: Attana biosensor, TRAIL-R2 chip, qualitative comparison
[2] = biological target: TRAIL-R2/Fc fusion protein (R & D Systems) (UniProt O14763); assay: biosensor, TRAIL-R2-Fc fusion protein immobilized on the chip

- binding [1]: binds
- binding [2]: binds
B1: 1C12-Fc (Fc fusion, not shown: a dimerising Fc or GST)
chain: IEVKDVTDTTALITWAKPEKWDGSIYGCELTYGIKDVPGDRTTIDLNSRHTAYSIGNLKPDTEYEVSLICFTPYGAKSNPAKETFTTGA

- binding [1]: binds
- binding [2]: binds
B2: 1C12-Cκ/1C12-IGHG1 (protein, not shown: a dimerising Fc or GST)
light: IEVKDVTDTTALITWAKPEKWDGSIYGCELTYGIKDVPGDRTTIDLNSRHTAYSIGNLKPDTEYEVSLICFTPYGAKSNPAKETFTTGGGTPT
heavy: B2 light
